Experimental data published in EP0659072B1, “PHAR[…] […] STEROIDS” (Pharmacia AB, priority 1993, dated 1995).

Assay: Quality of castor oil containing emulsions with different steroids (pH, volume distribution, span, storage stability)
Format: physicochemical
Conditions: for D(4:3) / pH / Span: emulsion of the steroid; for pH: heat sterilized; for Span: Malvern Mastersizer; for Storage 5 and 40°C: storage stability of emulsion
Description: In order to determinate the quality of the castor oil containing emulsions with different steroids, the following compositions were prepared:
The steroids were weighed in a 50 ml glass beaker. The castor oil (CO) or a mixture of castor oil and soybeans oil (CO+SBO) in a proportion of 70 : 30 was added to the beaker which was heated and the steroids were dissolved. The phospholipids were added to the oil phase and the agitation continued for another five minutes. This mixture was added to a heated aqueous phase containing water and glycerol and agitated for five minutes. The mixture was thereafter homogenized to an emulsion in a high pressure lab scale homogeniser at the technically highest possible pressure. The resultant emulsions were dispersed and sealed 20 ml glass vials which were heat sterilized. The emulsions were analysed with respect to the appearance, the shaking stability, pH and volume distribution. The span was analysed with a Malvern Mastersizer. The appearance of the droplets larger than 1µm and the average area on a relevant picture and the presence of precipitate were investigated with a microscope. The storage stability at 5 and 40°C was also studied.

Compound: CC(=O)[C@H]1CC[C@H]2[C@@H]3CC[C@H]4C[C@H](O)CC[C@]4(C)[C@H]3C(=O)C[C@]12C [Alfaxalone, 5α-pregnan-3α-ol-11,20-dione, reference compound]
- D(4:3) (vehicle CO (castor oil)): 0,83 µm
- pH (vehicle CO (castor oil)): 8.9
- Span (vehicle CO (castor oil)): 1.85
- D(4:3) (vehicle CO+SBO (70 : 30)): 0.58 µm
- Span (vehicle CO+SBO (70 : 30)): 1.61
- pH (vehicle CO+SBO (castor oil and soybean oil 70 : 30)): 8.9
- Storage 5 and 40°C (vehicle CO (castor oil)): >4 months
- Storage 5 and 40°C (vehicle CO+SBO (70 : 30)): >4 months
